Assay results taken from the supplement of paper PMC10849652.
This is one part of the list.

Amino acid sequences for entries named in this document (tags omitted). A change or cut given only in a name is not applied to a line headed by its entry.
UniProt Q9NRM2: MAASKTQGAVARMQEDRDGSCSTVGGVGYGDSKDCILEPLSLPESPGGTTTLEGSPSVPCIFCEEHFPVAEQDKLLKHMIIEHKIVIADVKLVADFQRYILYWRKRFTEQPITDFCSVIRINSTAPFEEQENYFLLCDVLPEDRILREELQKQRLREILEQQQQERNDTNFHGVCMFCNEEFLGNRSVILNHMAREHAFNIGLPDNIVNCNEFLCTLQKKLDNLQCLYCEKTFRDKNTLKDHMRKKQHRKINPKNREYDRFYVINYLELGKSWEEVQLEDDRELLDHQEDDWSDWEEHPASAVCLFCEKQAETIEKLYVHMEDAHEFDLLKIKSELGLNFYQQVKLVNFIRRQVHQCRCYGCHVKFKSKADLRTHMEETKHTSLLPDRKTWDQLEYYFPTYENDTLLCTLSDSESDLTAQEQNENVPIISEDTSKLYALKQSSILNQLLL
UniProt Q9UL40: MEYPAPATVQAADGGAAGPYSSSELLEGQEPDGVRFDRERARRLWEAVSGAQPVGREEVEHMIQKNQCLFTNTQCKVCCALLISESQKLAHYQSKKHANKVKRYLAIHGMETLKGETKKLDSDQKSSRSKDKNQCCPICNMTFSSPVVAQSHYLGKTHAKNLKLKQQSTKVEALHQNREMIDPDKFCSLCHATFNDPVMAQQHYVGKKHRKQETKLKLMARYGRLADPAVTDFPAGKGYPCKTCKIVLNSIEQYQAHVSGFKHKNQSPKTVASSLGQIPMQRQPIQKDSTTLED
UniProt Q8TF68: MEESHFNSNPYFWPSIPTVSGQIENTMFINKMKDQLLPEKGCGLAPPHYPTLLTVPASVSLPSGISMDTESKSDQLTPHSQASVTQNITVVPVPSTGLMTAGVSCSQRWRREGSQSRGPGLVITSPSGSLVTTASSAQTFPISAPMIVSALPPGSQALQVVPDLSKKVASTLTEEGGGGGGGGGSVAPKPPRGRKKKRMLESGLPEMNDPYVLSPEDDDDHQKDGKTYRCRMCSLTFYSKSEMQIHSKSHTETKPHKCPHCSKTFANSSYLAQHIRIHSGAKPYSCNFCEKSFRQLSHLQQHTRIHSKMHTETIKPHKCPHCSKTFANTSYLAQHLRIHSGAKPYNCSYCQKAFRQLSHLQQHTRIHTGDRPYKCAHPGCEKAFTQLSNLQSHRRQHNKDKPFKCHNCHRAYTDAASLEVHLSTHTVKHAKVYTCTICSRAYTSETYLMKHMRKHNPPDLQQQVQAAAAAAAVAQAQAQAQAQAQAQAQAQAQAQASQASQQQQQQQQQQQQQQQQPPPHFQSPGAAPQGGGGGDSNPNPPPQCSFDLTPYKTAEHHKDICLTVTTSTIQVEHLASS
UniProt Q96PM9: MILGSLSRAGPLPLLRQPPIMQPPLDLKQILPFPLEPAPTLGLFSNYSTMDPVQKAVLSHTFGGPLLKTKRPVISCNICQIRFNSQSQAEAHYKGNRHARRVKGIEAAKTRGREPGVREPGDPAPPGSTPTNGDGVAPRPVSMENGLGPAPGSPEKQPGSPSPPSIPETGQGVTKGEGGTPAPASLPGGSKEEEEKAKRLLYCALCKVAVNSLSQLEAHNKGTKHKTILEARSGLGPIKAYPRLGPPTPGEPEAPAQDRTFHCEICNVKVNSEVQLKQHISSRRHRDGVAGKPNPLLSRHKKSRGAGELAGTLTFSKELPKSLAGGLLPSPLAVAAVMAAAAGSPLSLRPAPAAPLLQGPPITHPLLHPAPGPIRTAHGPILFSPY
UniProt Q8NB15: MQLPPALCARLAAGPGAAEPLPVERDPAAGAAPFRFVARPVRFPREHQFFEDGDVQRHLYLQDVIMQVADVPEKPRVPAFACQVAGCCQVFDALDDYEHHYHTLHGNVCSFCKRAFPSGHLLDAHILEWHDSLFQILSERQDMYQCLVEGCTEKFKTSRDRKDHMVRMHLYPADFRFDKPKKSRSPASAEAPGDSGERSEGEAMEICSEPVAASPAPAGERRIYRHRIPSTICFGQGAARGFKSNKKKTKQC
UniProt Q9UK33: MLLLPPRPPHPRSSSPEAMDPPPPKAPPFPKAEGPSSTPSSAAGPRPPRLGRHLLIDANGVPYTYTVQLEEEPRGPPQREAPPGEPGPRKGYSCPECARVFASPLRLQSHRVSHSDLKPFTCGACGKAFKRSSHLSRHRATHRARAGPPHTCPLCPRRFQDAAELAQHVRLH
UniProt Q8N0Y2: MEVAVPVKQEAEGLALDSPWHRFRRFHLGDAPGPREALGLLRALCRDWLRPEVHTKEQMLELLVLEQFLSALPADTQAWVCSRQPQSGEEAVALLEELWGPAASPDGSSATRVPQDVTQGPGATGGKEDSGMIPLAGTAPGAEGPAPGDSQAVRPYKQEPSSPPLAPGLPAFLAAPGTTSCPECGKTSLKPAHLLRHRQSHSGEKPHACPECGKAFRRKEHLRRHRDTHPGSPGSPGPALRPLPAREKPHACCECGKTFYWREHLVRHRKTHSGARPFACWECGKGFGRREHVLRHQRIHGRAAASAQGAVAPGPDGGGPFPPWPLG
UniProt Q5VUA4: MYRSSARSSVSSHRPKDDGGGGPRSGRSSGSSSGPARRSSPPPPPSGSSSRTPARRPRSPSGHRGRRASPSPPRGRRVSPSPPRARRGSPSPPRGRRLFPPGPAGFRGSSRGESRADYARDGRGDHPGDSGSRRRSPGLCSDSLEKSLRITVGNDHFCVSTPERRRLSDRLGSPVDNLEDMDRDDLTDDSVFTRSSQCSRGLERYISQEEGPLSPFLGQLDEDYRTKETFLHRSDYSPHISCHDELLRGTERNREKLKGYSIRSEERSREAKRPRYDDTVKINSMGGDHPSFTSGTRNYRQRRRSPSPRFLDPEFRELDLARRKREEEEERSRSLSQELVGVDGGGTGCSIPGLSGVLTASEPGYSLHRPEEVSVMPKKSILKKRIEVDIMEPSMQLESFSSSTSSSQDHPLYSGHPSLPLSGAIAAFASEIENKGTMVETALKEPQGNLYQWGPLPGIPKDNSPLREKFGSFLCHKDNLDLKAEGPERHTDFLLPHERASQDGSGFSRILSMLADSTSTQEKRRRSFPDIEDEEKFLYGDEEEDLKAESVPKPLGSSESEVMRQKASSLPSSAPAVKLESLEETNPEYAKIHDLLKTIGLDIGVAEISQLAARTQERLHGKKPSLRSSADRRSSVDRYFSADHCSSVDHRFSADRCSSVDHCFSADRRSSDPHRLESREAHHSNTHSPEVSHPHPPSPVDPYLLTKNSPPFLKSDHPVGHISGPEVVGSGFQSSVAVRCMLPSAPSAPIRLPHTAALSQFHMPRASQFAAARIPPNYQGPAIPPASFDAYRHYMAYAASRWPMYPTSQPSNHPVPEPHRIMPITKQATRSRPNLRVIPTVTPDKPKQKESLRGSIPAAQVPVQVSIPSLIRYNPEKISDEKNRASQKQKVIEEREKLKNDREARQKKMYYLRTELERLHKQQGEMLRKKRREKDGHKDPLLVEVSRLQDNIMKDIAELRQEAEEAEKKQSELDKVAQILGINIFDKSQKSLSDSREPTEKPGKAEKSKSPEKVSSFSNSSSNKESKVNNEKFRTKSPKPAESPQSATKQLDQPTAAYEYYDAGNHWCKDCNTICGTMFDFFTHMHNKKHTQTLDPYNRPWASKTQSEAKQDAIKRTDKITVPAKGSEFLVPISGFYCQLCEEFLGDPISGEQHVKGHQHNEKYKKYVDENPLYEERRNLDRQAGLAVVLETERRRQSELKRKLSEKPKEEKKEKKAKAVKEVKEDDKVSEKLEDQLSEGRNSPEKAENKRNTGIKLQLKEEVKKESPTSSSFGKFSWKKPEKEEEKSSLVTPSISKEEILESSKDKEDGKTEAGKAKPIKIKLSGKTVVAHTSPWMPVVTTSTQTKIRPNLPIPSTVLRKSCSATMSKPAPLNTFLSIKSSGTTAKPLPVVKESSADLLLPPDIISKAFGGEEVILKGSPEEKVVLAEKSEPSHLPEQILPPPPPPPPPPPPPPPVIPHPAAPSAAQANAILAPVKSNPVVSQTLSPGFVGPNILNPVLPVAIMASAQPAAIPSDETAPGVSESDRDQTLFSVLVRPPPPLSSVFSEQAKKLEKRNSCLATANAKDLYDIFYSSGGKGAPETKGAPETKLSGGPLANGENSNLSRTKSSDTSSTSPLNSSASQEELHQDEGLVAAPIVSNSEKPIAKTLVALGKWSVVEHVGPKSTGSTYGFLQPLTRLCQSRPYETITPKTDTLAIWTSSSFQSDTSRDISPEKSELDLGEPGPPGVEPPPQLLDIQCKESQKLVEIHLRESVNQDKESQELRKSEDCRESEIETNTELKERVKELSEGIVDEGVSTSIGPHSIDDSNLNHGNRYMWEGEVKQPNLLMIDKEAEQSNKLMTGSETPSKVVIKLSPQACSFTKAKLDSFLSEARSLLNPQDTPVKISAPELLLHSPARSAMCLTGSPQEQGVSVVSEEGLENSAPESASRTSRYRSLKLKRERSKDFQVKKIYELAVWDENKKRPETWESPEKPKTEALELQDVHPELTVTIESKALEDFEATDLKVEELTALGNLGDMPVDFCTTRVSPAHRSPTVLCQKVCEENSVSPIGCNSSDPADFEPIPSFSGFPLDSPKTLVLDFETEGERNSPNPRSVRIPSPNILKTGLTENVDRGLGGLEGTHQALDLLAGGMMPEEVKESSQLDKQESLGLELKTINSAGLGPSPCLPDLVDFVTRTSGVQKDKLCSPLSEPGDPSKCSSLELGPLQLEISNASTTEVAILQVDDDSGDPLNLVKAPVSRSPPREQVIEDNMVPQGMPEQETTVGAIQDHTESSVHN
UniProt Q9P0T4: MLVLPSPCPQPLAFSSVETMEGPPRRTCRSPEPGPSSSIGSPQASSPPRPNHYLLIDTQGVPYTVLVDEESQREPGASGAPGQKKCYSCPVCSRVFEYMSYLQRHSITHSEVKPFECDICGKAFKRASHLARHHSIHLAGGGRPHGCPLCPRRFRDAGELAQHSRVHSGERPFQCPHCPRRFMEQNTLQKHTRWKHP
UniProt Q96ME7: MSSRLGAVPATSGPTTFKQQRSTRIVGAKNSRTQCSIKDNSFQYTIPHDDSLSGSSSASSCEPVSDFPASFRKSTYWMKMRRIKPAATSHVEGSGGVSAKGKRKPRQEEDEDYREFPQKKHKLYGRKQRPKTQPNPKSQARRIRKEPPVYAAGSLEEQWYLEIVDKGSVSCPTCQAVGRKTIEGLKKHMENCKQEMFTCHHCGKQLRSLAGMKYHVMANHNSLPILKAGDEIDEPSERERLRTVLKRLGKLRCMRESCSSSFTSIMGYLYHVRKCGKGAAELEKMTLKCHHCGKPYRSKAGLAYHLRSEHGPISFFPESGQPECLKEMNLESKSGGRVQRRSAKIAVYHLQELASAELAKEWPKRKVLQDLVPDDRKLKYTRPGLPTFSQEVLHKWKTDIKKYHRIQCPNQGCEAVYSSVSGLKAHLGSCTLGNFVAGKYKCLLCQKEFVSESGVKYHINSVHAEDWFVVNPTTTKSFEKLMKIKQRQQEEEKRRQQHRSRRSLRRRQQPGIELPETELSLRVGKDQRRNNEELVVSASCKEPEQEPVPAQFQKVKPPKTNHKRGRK
UniProt Q96KM6: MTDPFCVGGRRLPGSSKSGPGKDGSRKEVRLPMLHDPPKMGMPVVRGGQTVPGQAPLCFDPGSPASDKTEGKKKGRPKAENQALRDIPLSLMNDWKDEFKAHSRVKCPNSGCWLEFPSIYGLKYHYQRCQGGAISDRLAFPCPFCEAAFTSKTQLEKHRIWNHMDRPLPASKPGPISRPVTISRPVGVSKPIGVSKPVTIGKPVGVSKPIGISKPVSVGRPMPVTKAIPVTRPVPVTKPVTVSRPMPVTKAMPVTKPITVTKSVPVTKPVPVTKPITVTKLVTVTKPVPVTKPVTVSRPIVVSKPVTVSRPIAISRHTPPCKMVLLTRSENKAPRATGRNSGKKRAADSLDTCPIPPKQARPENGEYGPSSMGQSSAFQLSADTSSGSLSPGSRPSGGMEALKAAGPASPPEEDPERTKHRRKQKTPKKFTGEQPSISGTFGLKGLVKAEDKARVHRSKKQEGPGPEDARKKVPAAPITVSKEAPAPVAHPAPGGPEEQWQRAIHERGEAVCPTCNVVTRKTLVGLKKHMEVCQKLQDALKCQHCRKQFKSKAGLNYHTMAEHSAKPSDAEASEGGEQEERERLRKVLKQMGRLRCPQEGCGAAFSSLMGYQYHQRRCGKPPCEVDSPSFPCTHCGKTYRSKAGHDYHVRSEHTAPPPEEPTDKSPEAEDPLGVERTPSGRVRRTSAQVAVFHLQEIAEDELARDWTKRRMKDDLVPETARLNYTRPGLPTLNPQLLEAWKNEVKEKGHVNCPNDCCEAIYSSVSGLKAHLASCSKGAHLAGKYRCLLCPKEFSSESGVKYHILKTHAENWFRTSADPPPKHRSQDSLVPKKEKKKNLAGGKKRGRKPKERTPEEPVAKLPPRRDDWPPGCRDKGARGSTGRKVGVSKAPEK
UniProt Q9H609: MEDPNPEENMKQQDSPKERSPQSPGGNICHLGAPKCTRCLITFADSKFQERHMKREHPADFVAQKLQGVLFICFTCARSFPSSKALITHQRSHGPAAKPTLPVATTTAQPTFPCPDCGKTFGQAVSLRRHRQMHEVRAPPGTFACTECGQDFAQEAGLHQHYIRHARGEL

Columns and labels:
Test in all cases: log2 fold change, soluble protein after heating vs DMSO (PISA); higher = thermal stabilisation; K562 cells, 10 uM, 30 min; active = over 0.2 and 3.5 SD of the protein, either way, in both replicates (recomputed)
[1] = target: ZNF277 (UniProt Q9NRM2)
Outline: (§1)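 Soluble protein was defined as the supernatant after 21,000xg for 90 min. It came from K562 cells at 2×10^6 cells/mL given 10 μM compound for 30 min, heated in aliquots for 3 min across 48°C-58°C, pooled, and extracted in PBS with 0.5% NP-40 at 4°C, and was quantified by TMTpro 16plex LC-MS/MS with equalised channel sums. Thermal stability against control samples, from duplicates, is reported as log2 fold change.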

[2] = target: ZNF316 (UniProt A6NFI3)
Outline: as §1

[3] = target: ZNF330 (UniProt Q9Y3S2)
Outline: as §1

[4] = target: ZNF346 (UniProt Q9UL40)
Outline: as §1

[5] = target: ZNF384 (UniProt Q8TF68)
Outline: as §1

[6] = target: ZNF385A (UniProt Q96PM9)
Outline: as §1

[7] = target: ZNF414 isoform 2 (UniProt Q96IQ9)
Outline: as §1

[8] = target: ZNF428 (UniProt M0QXZ5)
Outline: as §1

[9] = target: ZNF511 isoform 1 (UniProt Q8NB15)
Outline: as §1

[10] = target: ZNF579 (UniProt Q8NAF0)
Outline: as §1

[11] = target: ZNF580 (UniProt Q9UK33)
Outline: as §1

[12] = target: ZNF444 (UniProt Q8N0Y2)
Outline: as §1

[13] = target: ZNF318 (UniProt Q5VUA4)
Outline: as §1

[14] = target: ZNF581 (UniProt Q9P0T4)
Outline: as §1

[15] = target: ZNF512 (UniProt Q96ME7)
Outline: as §1

[16] = target: ZNF512B (UniProt Q96KM6)
Outline: as §1

[17] = target: ZNF576 (UniProt Q9H609)
Outline: as §1

[18] = target: ZNF451 (UniProt Q9Y4E5)
Outline: as §1

Measured: log2 fold change

CNCc1ccc(-c2[nH]c3cc(F)cc4c3c2CCNC4=O)cc1 [rucaparib]
inactive: [1] 0 | [2] -0.166 | [3] 0.03 | [4] 0.09 | [5] 0.164 | [6] 0.08 | [7] 0.043 | [8] -0.032 | [9] -0.006 | [10] 0.01 | [11] 0.136

CN1CCc2c(c3ccccc3n2Cc2ccc(C(=O)NO)cc2)C1 [Tubastatin A]
inactive: [1] 0.275 | [3] 0.054 | [4] -0.06 | [5] 0.051 | [6] -0.04 | [8] 0.065 | [9] -0.089 | [10] 0.095 | [11] -0.08

NCC(=O)Nc1ccc(-n2nc(C(F)(F)F)cc2-c2ccc3c(ccc4ccccc43)c2)cc1
inactive: [1] -0.148 | [3] 0 | [4] 0.105 | [5] 0.054 | [6] -0.079 | [7] 0.063 | [8] -0.008 | [12] 0.06 | [9] -0.005 | [10] 0.085 | [11] -0.038

Cc1cc(SCc2sc(-c3ccc(C(F)(F)F)cc3)nc2C)ccc1OCC(=O)O
inactive: [1] 0.152 | [13] -0.119 | [3] 0.006 | [4] 0 | [6] -0.008 | [8] -0.034 | [10] -0.009 | [11] -0.301 | [14] -0.029

C#Cc1cccc(Nc2ncnc3cc(OCCOC)c(OCCOC)cc23)c1 [erlotinib]
inactive: [1] 0.097 | [3] -0.048 | [4] -0.04 | [5] 0.016 | [6] -0.054 | [8] -0.014 | [15] -0.048 | [16] 0.038 | [17] -0.129 | [10] -0.056

CCCS(=O)(=O)Nc1ccc(F)c(C(=O)c2c[nH]c3ncc(-c4ccc(Cl)cc4)cc23)c1F [vemurafenib]
inactive: [1] 0.063 | [3] -0.023 | [4] -0.015 | [5] 0.055 | [6] -0.066 | [7] -0.111 | [8] 0.091 | [12] -0.086 | [9] -0.087 | [10] -0.157 | [11] 0.042

CC[C@@H]1C(=O)N(C)c2cnc(Nc3ccc(C(=O)N[C@H]4CC[C@H](N5CCN(CC6CC6)CC5)CC4)cc3OC)nc2N1C(C)C [volasertib]
inactive: [1] -0.017 | [3] -0.002 | [4] 0.118 | [6] 0.187 | [7] -0.075 | [8] 0.057 | [12] 0.116 | [9] 0.007 | [10] 0.098 | [11] 0.025

CS(=O)(=O)CCNCc1ccc(-c2ccc3ncnc(Nc4ccc(OCc5cccc(F)c5)c(Cl)c4)c3c2)o1 [lapatinib]
inactive: [1] 0 | [3] -0.027 | [4] 0.107 | [6] -0.086 | [7] 0.117 | [8] 0.075 | [12] 0.154 | [9] -0.085 | [10] 0.05 | [11] -0.025

C[C@@H]1COCCN1c1cc(C2(S(C)(=O)=O)CC2)nc(-c2cccc3[nH]ccc23)n1
inactive: [1] -0.566 | [3] -0.064 | [4] -0.002 | [6] -0.288 | [8] -0.005 | [18] -0.162 | [9] 0.105 | [15] 0.007 | [16] -0.346 | [10] -0.114

CN1CC[C@H](c2c(O)cc(O)c3c(=O)cc(-c4ccccc4Cl)oc23)[C@H](O)C1 [alvocidib]
inactive: [2] -0.139 | [13] 0.126 | [3] 0.005 | [4] 0.199 | [5] 0.165 | [6] 0.135 | [7] 0.013 | [8] 0 | [12] 0.101 | [14] 0.131

CS(=O)(=O)c1ccc(-c2cnc(N)c(C(=O)Nc3ccccc3)n2)cc1
inactive: [2] 0.08 | [3] -0.068 | [4] -0.089 | [5] -0.074 | [6] -0.02 | [7] 0.015 | [8] -0.106 | [12] -0.02 | [9] -0.022 | [10] 0.019 | [11] -0.231

CON(C)C(=O)N1N=C(c2cc(F)ccc2F)S[C@@]1(CCCN)c1ccccc1 [filanesib]
inactive: [2] 0.123 | [3] 0.335 | [4] 0.126 | [5] 0.198 | [6] 0.19 | [7] -0.122 | [8] -0.022 | [12] 0.228 | [9] 0.019 | [10] 0.181 | [11] 0.152

Nc1ccccc1NC(=O)c1ccc(CNC(=O)OCc2cccnc2)cc1 [entinostat]
inactive: [2] -0.349 | [3] 0.005 | [4] -0.073 | [5] -0.163 | [6] 0.038 | [7] 0.116 | [8] -0.05 | [12] -0.144 | [9] -0.078 | [10] -0.036 | [11] 0

Cc1cccc(CC(=O)N2CCc3c2ccc(-c2cn(C)c4ncnc(N)c24)c3F)n1
inactive: [1] 0.045 | [3] 0.014 | [4] -0.143 | [5] -0.019 | [6] -0.11 | [8] -0.026 | [10] -0.101 | [11] -0.045

CCCS(=O)(=O)Nc1ccc(F)c(C(=O)c2c[nH]c3ncc(Cl)cc23)c1F
inactive: [1] 0.028 | [3] -0.027 | [4] 0.054 | [6] 0.008 | [7] -0.053 | [8] -0.029 | [12] 0.069 | [9] 0.014 | [10] -0.085 | [11] 0.069

Cc1ccc(Sc2cncc3sc(C(N)=O)cc23)cc1
inactive: [1] -0.032 | [3] -0.06 | [4] -0.052 | [6] -0.053 | [7] -0.18 | [8] 0.004 | [12] -0.083 | [9] 0.018 | [10] -0.07 | [11] 0.16

CS(=O)(=O)N1CCN(Cc2cc3nc(-c4cccc5[nH]ncc45)nc(N4CCOCC4)c3s2)CC1 [pictilisib]
inactive: [1] -0.249 | [3] 0.02 | [4] -0.045 | [5] -0.043 | [6] 0.193 | [8] 0.036 | [10] 0.02 | [11] -0.037

O=C(CCCCCCC(=O)Nc1ccccc1)NO [vorinostat]
inactive: [1] -0.022 | [3] -0.036 | [4] 0.05 | [5] -0.173 | [6] -0.102 | [8] 0.046 | [10] -0.032 | [11] -0.064

CCn1cc(-c2ccnc3[nH]c(-c4cccc(CN(C)C)c4)cc23)c(-c2ccc(NC(=O)N(C)C)cc2)n1
inactive: [1] 0.01 | [3] -0.026 | [4] -0.038 | [5] 0.079 | [6] 0.151 | [8] -0.007 | [10] 0.091 | [11] 0.092

CC(C)(O)CC(=O)NCCn1ccc2ncnc(Nc3ccc(Oc4cccc(C(F)(F)F)c4)c(Cl)c3)c21
inactive: [1] -0.002 | [3] -0.015 | [4] -0.149 | [6] -0.006 | [8] -0.048 | [18] -0.058 | [9] 0.1 | [15] -0.018 | [16] 0.024 | [10] -0.018

Fc1ccc(Cl)cc1-c1nc(Nc2ccncc2)c2nccnc2n1
active: [1] -0.765
inactive: [3] -0.021 | [4] 0.052 | [6] -0.064 | [8] 0.09 | [18] 0.136 | [9] -0.03 | [15] 0.086 | [16] -0.162 | [10] -0.002

O=C1NC(=O)C(c2cnc3ccccn23)=C1c1cn2c3c(cc(F)cc13)CN(C(=O)N1CCCCC1)CC2
inactive: [1] 0.124 | [3] -0.046 | [4] 0.142 | [6] 0.164 | [8] -0.051 | [18] -0.179 | [9] -0.095 | [15] -0.023 | [16] 0.201 | [10] 0.038

CN1CCN(c2nc(C3=C(c4c[nH]c5ccccc45)C(=O)NC3=O)c3ccccc3n2)CC1 [sotrastaurin]
inactive: [2] -0.068 | [3] -0.143 | [4] 0.037 | [5] 0.059 | [6] -0.167 | [7] 0.14 | [8] -0.027 | [12] -0.007 | [9] 0.001 | [10] 0.014 | [11] 0.039

Cc1cc(Nc2cc(CN3CCOCC3)c3nc(C)c(Cc4ccc(Cl)cc4F)n3n2)n[nH]1 [gandotinib]
inactive: [1] 0.041 | [3] -0.023 | [4] 0.097 | [5] 0.12 | [6] 0.084 | [8] 0.016 | [10] 0.036 | [11] 0.041

Ordered by SMILES length (ascending): some entries from above
CNCc1ccc(-c2[nH]c3cc(F)cc4c3c2CCNC4=O)cc1 [rucaparib]
inactive: [1] 0 | [2] -0.166 | [3] 0.03 | [4] 0.09 | [5] 0.164 | [6] 0.08 | [7] 0.043 | [8] -0.032 | [9] -0.006 | [10] 0.01 | [11] 0.136

Nc1ccccc1NC(=O)c1ccc(CNC(=O)OCc2cccnc2)cc1 [entinostat]
inactive: [2] -0.349 | [3] 0.005 | [4] -0.073 | [5] -0.163 | [6] 0.038 | [7] 0.116 | [8] -0.05 | [12] -0.144 | [9] -0.078 | [10] -0.036 | [11] 0

Cc1cc(SCc2sc(-c3ccc(C(F)(F)F)cc3)nc2C)ccc1OCC(=O)O
inactive: [1] 0.152 | [13] -0.119 | [3] 0.006 | [4] 0 | [6] -0.008 | [8] -0.034 | [10] -0.009 | [11] -0.301 | [14] -0.029

CN1CC[C@H](c2c(O)cc(O)c3c(=O)cc(-c4ccccc4Cl)oc23)[C@H](O)C1 [alvocidib]
inactive: [2] -0.139 | [13] 0.126 | [3] 0.005 | [4] 0.199 | [5] 0.165 | [6] 0.135 | [7] 0.013 | [8] 0 | [12] 0.101 | [14] 0.131

C[C@@H]1COCCN1c1cc(C2(S(C)(=O)=O)CC2)nc(-c2cccc3[nH]ccc23)n1
inactive: [1] -0.566 | [3] -0.064 | [4] -0.002 | [6] -0.288 | [8] -0.005 | [18] -0.162 | [9] 0.105 | [15] 0.007 | [16] -0.346 | [10] -0.114

CS(=O)(=O)N1CCN(Cc2cc3nc(-c4cccc5[nH]ncc45)nc(N4CCOCC4)c3s2)CC1 [pictilisib]
inactive: [1] -0.249 | [3] 0.02 | [4] -0.045 | [5] -0.043 | [6] 0.193 | [8] 0.036 | [10] 0.02 | [11] -0.037

CC[C@@H]1C(=O)N(C)c2cnc(Nc3ccc(C(=O)N[C@H]4CC[C@H](N5CCN(CC6CC6)CC5)CC4)cc3OC)nc2N1C(C)C [volasertib]
inactive: [1] -0.017 | [3] -0.002 | [4] 0.118 | [6] 0.187 | [7] -0.075 | [8] 0.057 | [12] 0.116 | [9] 0.007 | [10] 0.098 | [11] 0.025

Continued.

CN1CCC(CNc2ccc3ncc(-c4cccc(OC(F)(F)F)c4)n3n2)CC1
inactive: [1] 0.077 | [3] -0.034 | [4] -0.038 | [5] 0.116 | [6] -0.137 | [8] 0.002 | [10] 0.103 | [11] 0.054

CCn1c(C(=O)N(C2CC2)C2CC2)cc2c3c(ncn3C)c(Nc3cc(C)n(C)n3)nc21
inactive: [3] 0.011 | [4] -0.052 | [5] -0.064 | [6] -0.052 | [8] 0.01 | [16] 0.196 | [17] 0.076
